Results are given in words; binding and its absence hold for the method and conditions named. Binding seen in cells or lysates may run through a third protein. Some results given as binding are weak or reduced against the parent protein; the word gives no strength. Each block holds one molecule with its values, some of them ahead of it.
Columns and labels:
[1] = target: heat shock transcription factor 1 (HSF1) (human (endogenous in HeLa)) (UniProt Q00613); assay: co-IP; nuclear (and cytoplasmic) extracts of heat-shocked HeLa cells, 150 mM NaCl, 1% NP-40; anti-HSF1 (anti-mHSF1n) or non-immune serum, protein A-Sepharose, immunoblot; in some panels after knock-down of HSF1, TRRAP, TIP60 or p300
[2] = target: HA-hPLK1-K82R (human) (UniProt P53350); assay: co-IP; nuclear extracts of heat-shocked cells in which endogenous PLK1 was replaced with GFP, HA-hPLK1 or its kinase-dead mutant; precipitated with anti-PLK1, immunoblot
[3] = target: heat shock transcription factor 1 (HSF1) (human (endogenous in HeLa)) (UniProt Q00613); assay: co-IP; Supplementary Fig. 2g: hTRRAP-3×FLAG or hTRRAPΔ1801-1833-3×FLAG expressed in cells; legend not shown, which partner was precipitated is not told
[4] = target: heat shock transcription factor 1 (HSF1) (human (endogenous in HeLa)) (UniProt Q00613); assay: co-IP; nuclear (and cytoplasmic) extracts of heat-shocked HeLa cells, 150 mM NaCl, 1% NP-40; anti-HSF1 (anti-mHSF1n) or non-immune serum, protein A-Sepharose, immunoblot; in some panels after knock-down of HSF1, TRRAP, TIP60 or p300; remark: listed apart in the source

Sequences of proteins named here, by UniProt entry; tags and fusion partners are left off. A change or cut given only in a name is not applied to a line headed by its entry.
UniProt Q00613: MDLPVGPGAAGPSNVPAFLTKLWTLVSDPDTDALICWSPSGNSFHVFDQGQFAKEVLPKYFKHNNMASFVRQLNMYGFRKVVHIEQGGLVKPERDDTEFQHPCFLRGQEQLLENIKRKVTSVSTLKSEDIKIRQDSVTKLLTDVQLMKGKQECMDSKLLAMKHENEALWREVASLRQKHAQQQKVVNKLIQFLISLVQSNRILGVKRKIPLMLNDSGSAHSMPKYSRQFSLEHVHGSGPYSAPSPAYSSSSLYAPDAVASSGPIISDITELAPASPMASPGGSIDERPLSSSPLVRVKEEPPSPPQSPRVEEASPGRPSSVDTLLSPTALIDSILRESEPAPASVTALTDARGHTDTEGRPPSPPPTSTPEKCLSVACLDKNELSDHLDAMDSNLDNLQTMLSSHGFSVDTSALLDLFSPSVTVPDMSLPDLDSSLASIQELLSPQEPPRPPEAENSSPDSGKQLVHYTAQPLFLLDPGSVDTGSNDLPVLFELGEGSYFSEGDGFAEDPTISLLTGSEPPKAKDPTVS
UniProt P53350: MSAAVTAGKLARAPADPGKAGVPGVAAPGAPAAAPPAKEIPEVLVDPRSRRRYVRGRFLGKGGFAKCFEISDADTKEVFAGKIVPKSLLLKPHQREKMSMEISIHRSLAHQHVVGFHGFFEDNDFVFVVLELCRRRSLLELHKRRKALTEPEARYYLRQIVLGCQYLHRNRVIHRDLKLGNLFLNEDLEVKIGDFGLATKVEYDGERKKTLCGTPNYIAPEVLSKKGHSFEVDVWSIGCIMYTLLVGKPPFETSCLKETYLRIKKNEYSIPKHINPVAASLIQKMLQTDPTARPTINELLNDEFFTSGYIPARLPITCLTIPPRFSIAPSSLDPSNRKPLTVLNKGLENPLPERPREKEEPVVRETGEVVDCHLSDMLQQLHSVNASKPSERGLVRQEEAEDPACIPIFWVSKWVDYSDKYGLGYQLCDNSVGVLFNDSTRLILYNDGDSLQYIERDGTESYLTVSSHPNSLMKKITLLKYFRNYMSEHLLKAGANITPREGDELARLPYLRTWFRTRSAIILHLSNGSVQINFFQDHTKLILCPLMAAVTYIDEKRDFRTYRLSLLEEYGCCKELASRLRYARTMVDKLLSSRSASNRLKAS
UniProt Q92993: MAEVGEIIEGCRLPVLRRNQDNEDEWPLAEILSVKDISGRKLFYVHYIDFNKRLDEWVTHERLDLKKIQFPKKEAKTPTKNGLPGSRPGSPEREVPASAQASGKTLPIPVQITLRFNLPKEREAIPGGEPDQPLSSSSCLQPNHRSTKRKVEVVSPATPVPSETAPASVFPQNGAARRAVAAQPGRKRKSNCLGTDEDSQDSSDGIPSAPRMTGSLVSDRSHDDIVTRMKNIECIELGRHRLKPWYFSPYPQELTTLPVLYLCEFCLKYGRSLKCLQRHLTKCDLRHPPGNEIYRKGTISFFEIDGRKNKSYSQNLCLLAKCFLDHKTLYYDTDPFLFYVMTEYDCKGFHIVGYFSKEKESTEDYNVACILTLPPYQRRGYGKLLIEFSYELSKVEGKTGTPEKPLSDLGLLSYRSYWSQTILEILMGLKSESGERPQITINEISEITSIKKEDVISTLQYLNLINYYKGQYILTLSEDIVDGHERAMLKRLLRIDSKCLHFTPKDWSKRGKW
UniProt Q96L91: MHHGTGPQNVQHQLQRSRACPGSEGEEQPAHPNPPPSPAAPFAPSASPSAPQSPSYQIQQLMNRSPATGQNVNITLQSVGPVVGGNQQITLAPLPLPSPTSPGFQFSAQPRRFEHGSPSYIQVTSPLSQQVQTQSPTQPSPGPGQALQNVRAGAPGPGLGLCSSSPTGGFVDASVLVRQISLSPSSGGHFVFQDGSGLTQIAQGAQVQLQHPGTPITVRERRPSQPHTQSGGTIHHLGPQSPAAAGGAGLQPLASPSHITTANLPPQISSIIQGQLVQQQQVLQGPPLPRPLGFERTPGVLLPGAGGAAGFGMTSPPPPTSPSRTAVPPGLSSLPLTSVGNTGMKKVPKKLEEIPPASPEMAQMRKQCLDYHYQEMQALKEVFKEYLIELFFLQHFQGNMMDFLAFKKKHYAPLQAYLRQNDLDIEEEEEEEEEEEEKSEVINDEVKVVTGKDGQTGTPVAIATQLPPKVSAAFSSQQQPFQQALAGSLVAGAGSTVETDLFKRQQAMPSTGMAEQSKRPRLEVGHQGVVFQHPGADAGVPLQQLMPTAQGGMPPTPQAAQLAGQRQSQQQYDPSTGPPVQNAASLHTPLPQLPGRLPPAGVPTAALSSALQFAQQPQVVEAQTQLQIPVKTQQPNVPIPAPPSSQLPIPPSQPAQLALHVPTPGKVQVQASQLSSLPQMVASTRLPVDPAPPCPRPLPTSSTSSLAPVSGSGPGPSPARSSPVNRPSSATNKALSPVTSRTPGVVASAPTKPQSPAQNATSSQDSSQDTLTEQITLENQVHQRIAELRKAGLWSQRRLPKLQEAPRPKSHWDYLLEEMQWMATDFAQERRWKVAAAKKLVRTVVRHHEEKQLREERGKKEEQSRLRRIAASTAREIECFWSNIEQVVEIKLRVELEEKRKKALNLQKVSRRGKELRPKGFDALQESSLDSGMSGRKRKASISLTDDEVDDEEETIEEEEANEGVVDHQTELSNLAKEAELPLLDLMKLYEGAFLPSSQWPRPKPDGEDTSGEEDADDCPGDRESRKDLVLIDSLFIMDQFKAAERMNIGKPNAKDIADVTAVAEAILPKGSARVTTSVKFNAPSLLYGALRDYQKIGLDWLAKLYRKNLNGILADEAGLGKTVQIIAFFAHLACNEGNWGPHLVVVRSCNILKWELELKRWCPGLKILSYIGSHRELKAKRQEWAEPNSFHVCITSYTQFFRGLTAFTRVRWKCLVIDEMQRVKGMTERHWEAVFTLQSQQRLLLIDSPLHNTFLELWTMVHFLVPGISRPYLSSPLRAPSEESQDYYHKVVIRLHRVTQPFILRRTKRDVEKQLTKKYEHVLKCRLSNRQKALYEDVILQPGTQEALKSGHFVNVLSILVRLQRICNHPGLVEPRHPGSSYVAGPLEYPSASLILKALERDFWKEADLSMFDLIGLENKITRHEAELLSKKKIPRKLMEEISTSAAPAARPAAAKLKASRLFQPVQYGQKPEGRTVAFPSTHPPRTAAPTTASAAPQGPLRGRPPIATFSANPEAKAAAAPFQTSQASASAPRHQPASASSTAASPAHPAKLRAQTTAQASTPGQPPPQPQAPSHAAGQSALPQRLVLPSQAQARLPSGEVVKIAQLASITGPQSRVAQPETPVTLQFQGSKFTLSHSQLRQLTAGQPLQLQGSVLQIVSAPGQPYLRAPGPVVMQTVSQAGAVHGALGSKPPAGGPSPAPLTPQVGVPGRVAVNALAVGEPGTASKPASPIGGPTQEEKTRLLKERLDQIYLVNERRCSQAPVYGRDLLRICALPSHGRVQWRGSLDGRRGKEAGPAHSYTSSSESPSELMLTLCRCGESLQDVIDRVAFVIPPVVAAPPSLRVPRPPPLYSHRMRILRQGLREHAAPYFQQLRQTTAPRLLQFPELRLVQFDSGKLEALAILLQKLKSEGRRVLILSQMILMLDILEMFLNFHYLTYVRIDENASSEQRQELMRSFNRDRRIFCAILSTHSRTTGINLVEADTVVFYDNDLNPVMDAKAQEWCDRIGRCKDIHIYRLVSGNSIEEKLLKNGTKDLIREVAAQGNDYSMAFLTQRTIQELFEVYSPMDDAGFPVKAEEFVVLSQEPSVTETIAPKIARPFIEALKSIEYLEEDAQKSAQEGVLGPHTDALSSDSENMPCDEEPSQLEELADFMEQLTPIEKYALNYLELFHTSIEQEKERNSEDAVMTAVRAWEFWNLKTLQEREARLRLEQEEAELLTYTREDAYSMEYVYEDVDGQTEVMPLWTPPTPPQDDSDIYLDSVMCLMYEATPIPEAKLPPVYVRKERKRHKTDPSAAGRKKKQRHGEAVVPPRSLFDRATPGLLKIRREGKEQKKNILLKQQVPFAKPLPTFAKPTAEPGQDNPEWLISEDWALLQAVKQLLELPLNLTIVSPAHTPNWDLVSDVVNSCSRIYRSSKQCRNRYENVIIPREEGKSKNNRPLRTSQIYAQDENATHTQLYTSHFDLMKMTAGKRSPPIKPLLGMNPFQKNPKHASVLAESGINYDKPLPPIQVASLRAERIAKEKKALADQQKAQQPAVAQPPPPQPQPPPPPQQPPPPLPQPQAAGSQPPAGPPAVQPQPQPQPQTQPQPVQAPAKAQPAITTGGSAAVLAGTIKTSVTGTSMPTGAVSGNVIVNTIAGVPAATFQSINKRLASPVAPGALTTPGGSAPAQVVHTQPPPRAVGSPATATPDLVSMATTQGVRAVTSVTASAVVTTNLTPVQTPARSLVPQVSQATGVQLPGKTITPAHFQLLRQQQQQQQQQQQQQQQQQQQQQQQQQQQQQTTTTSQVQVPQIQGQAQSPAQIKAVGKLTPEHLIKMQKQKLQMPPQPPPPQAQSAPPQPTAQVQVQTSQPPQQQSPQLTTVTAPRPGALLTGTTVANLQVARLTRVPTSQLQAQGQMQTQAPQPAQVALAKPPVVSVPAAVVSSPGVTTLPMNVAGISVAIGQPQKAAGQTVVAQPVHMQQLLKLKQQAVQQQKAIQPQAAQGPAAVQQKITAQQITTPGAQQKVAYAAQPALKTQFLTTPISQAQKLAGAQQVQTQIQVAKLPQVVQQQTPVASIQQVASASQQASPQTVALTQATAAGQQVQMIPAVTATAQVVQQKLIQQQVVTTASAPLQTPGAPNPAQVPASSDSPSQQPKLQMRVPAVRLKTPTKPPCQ

binding [1]: binds
Molecule: PLK1 (from UniProt P53350 1-603) (enzyme)

binding [2]: binds
Molecule: heat shock transcription factor 1 (HSF1) (from UniProt Q00613 1-529)

binding [1]: binds
Molecule: TIP60 (from UniProt Q92993 1-513) (enzyme)

binding [3]: binds
Molecule: hTRRAP (isoform 2, accession number NP_003487) tagged with 3×FLAG peptide at the C-terminus (from UniProt Q9Y4A5-2 1-3830)

binding [1]: binds
Molecule: p400 (from UniProt Q96L91 1-3159)

binding [1]: binds
Molecule: TRRAP (from UniProt Q9Y4A5 1-3859)

binding [4]: binds
B1: tripartite motif (TRIM) 33 (protein, UniProt Q9UPN9 1-1127)
chain: MAENKGGGEAESGGGGSGSAPVTAGAAGPAAQEAEPPLTAVLVEEEEEEGGRAGAEGGAAGPDDGGVAAASSGSAQAASSPAASVGTGVAGGAVSTPAPAPASAPAPGPSAGPPPGPPASLLDTCAVCQQSLQSRREAEPKLLPCLHSFCLRCLPEPERQLSVPIPGGSNGDIQQVGVIRCPVCRQECRQIDLVDNYFVKDTSEAPSSSDEKSEQVCTSCEDNASAVGFCVECGEWLCKTCIEAHQRVKFTKDHLIRKKEDVSESVGASGQRPVFCPVHKQEQLKLFCETCDRLTCRDCQLLEHKEHRYQFLEEAFQNQKGAIENLLAKLLEKKNYVHFAATQVQNRIKEVNETNKRVEQEIKVAIFTLINEINKKGKSLLQQLENVTKERQMKLLQQQNDITGLSRQVKHVMNFTNWAIASGSSTALLYSKRLITFQLRHILKARCDPVPAANGAIRFHCDPTFWAKNVVNLGNLVIESKPAPGYTPNVVVGQVPPGTNHISKTPGQINLAQLRLQHMQQQVYAQKHQQLQQMRMQQPPAPVPTTTTTTQQHPRQAAPQMLQQQPPRLISVQTMQRGNMNCGAFQAHQMRLAQNAARIPGIPRHSGPQYSMMQPHLQRQHSNPGHAGPFPVVSVHNTTINPTSPTTATMANANRGPTSPSVTAIELIPSVTNPENLPSLPDIPPIQLEDAGSSSLDNLLSRYISGSHLPPQPTSTMNPSPGPSALSPGSSGLSNSHTPVRPPSTSSTGSRGSCGSSGRTAEKTSLSFKSDQVKVKQEPGTEDEICSFSGGVKQEKTEDGRRSACMLSSPESSLTPPLSTNLHLESELDALASLENHVKIEPADMNESCKQSGLSSLVNGKSPIRSLMHRSARIGGDGNNKDDDPNEDWCAVCQNGGDLLCCEKCPKVFHLTCHVPTLLSFPSGDWICTFCRDIGKPEVEYDCDNLQHSKKGKTAQGLSPVDQRKCERLLLYLYCHELSIEFQEPVPASIPNYYKIIKKPMDLSTVKKKLQKKHSQHYQIPDDFVADVRLIFKNCERFNEMMKVVQVYADTQEINLKADSEVAQAGKAVALYFEDKLTEIYSDRTFAPLPEFEQEEDDGEVTEDSDEDFIQPRRKRLKSDERPVHIK

binding [4]: binds
B2: TRIM24 (protein, UniProt O15164 1-1050)
chain: MEVAVEKAVAAAAAASAAASGGPSAAPSGENEAESRQGPDSERGGEAARLNLLDTCAVCHQNIQSRAPKLLPCLHSFCQRCLPAPQRYLMLPAPMLGSAETPPPVPAPGSPVSGSSPFATQVGVIRCPVCSQECAERHIIDNFFVKDTTEVPSSTVEKSNQVCTSCEDNAEANGFCVECVEWLCKTCIRAHQRVKFTKDHTVRQKEEVSPEAVGVTSQRPVFCPFHKKEQLKLYCETCDKLTCRDCQLLEHKEHRYQFIEEAFQNQKVIIDTLITKLMEKTKYIKFTGNQIQNRIIEVNQNQKQVEQDIKVAIFTLMVEINKKGKALLHQLESLAKDHRMKLMQQQQEVAGLSKQLEHVMHFSKWAVSSGSSTALLYSKRLITYRLRHLLRARCDASPVTNNTIQFHCDPSFWAQNIINLGSLVIEDKESQPQMPKQNPVVEQNSQPPSGLSSNQLSKFPTQISLAQLRLQHMQQQVMAQRQQVQRRPAPVGLPNPRMQGPIQQPSISHQQPPPRLINFQNHSPKPNGPVLPPHPQQLRYPPNQNIPRQAIKPNPLQMAFLAQQAIKQWQISSGQGTPSTTNSTSSTPSSPTITSAAGYDGKAFGSPMIDLSSPVGGSYNLPSLPDIDCSSTIMLDNIVRKDTNIDHGQPRPPSNRTVQSPNSSVPSPGLAGPVTMTSVHPPIRSPSASSVGSRGSSGSSSKPAGADSTHKVPVVMLEPIRIKQENSGPPENYDFPVVIVKQESDEESRPQNANYPRSILTSLLLNSSQSSTSEETVLRSDAPDSTGDQPGLHQDNSSNGKSEWLDPSQKSPLHVGETRKEDDPNEDWCAVCQNGGELLCCEKCPKVFHLSCHVPTLTNFPSGEWICTFCRDLSKPEVEYDCDAPSHNSEKKKTEGLVKLTPIDKRKCERLLLFLYCHEMSLAFQDPVPLTVPDYYKIIKNPMDLSTIKKRLQEDYSMYSKPEDFVADFRLIFQNCAEFNEPDSEVANAGIKLENYFEELLKNLYPEKRFPKPEFRNESEDNKFSDDSDDDFVQPRKKRLKSIEERQLLK

Source: publication PMC9338313
